Assay results reported in publication PMC4625058.

Amino acid sequences for entries named in this document (tags omitted). A change or cut given only in a name is not applied to a line headed by its entry.
UniProt Q388G3: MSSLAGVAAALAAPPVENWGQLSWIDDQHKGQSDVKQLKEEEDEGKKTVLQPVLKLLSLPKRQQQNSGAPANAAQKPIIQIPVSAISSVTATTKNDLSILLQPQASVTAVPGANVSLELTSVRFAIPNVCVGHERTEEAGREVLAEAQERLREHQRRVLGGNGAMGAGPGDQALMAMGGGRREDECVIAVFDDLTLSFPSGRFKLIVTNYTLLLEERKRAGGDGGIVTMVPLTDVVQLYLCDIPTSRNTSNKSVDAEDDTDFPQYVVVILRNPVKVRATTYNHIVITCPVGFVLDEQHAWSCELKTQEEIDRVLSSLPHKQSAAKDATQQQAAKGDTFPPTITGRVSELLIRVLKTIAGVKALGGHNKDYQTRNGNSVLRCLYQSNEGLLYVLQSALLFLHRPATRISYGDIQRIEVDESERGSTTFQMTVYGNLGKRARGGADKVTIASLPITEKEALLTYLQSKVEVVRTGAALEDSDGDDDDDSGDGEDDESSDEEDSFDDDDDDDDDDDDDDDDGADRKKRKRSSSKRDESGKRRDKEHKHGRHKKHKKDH

Target: T. brucei FACT large subunit Spt16, tagged with a C-terminal PTP epitope (Trypanosoma brucei) (UniProt Q580R3)
Assay: affinity purification with mass spectrometry; tandem affinity purification of Spt16-PTP from lysate of about 2 x 10^10 procyclic-form cells: IgG Sepharose, TEV cleavage, anti-Prot C matrix with Ca2+, elution with EGTA; SDS-PAGE bands identified by mass spectrometry

binding: binds
Substance: T. brucei Pob3, small subunit of the FACT complex (from UniProt Q388G3)

These are yes or no findings as the source states them, for the method shown. In cells and extracts the contact can be indirect. Here binding means that the protein was enriched with, or labelled near, the bait; the list need not be complete.
